In publication PMC9855884, “Glycosylated Lipopeptides—Synthesis and Evaluation of Antimicrobial Activity and Cytotoxicity” (Biomolecules, 2023):

Tested on: human keratinocytes (HaCaT)
Experiment: MTT assay, cytotoxicity
Assay type: cell-based
Experimental: To evaluate the cytotoxicity of the test peptides (IC50), the classic MTT assay on 96-well plates was performed for human keratinocytes (HaCaT) which were acquired from the ATCC. The assay was based on colorimetric determination of the cell metabolic activity where the color intensity reflected the number of live cells that could be measured spectrophotometrically. The cell line was cultured in a Dulbecco’s modified Eagle Medium (Invitrogen) supplemented with 10% fetal bovine serum (v/v), 100 units/mL of penicillin, 100 μg/mL of streptomycin, and 2 mM L-glutamine and was kept at 37 °C in a humidified 5% CO2 incubator. Briefly, a day after plating of 500 cells per well, a series of concentrations (0.5–500 μg/mL) of the test compounds were applied. DMSO was added to the control cells at a final concentration of 1.0% (v/v), which was related to the maximum concentration of the solvent compounds used in the experiment. After 24 h of incubation at 37 °C (humidified 5% CO2 incubator) with the peptides, a medium containing 1 mg/mL of MTT was added to the wells up to a final concentration of 0.5 mg/mL. Subsequently, the plates were incubated at 37 °C for 4 h. Then, the medium was aspirated, and the formazan product was solubilized with DMSO. The background absorbance at 630 nm was subtracted from that at 570 nm for each well (Epoch, BioTek Instruments, Winooski, VT, USA). Six replicates were conducted for each concentration. All experiments were repeated at least twice and the resulting IC50 values were calculated with a GraFit 7 software (v. 7.0, Erithacus, Berkley, CA, USA).
The selectivity indexes were calculated for all the strains as IC50/MIC. According to IC50, in most cases, glycosylation caused only a slight decrease in toxicity. However, in contrast with SI calculated for HC50, the differences between USCLs and gUSCLs are not so distinct. […] Moreover, toxicity of USCLs and gUSCLs is high and exceeds their antimicrobial activity. The lipopetides were not selective against Gram-negative strains (K. pneumoniae, A. baumannii, P. aeruginosa, K. aerogenes) over human cells. A few USCLs were selective (SI > 1) against E. faecium and S. aureus with SI up to 1.87; and some gUSCLs were selective against E. faecium but not against S. aureus, with SI between 0.63 and 1.73. […] In this case, SI of gUSCLs was noticeably […] than that of corresponding parent USCLs (2.07, 1.99, 2.67 vs. 2.53, 2.36, 3.46, respectively). Selectivity indexes were plotted against adjusted retention time (Figures S15–S21). A moderate linear correlation was found in USCLs and K. pneumoniae, C. glabrata, and gUSCLs and K. pneumoniae, K. aerogenes (R^2 between 0.6064 and 0.6481). A relatively high linear correlation was obtained for USCLs and K. aerogenes (R^2 of 0.8214) and also for gUSCLs and C. glabrata (R^2 of 0.9223).

Row | Compound | Selectivity Index (SI), IC50/MIC (A. baumannii) | Selectivity Index (SI), IC50/MIC (C. glabrata) | Selectivity Index (SI), IC50/MIC (E. faecium) | Selectivity Index (SI), IC50/MIC (K. aerogenes) | Selectivity Index (SI), IC50/MIC (K. pneumoniae) | Selectivity Index (SI), IC50/MIC (P. aeruginosa) | Selectivity Index (SI), IC50/MIC (S. aureus)
1 | CCCCCCCCCCCCCCCCCC(=O)N[C@@H](CCCNC(=N)N)C(=O)N[C@@H](CO)C(=O)N[C@@H](CCCNC(=N)N)C(N)=O [Peptide 8, C18-RSR-NH2] (Stearoyl-Arg-Ser-Arg-NH2) | 0.12 | 1.99 | 1.00 | 0.25 | 0.25 | 0.12 | 0.50
2 | CCCCCCCCCCCCCC(=O)N[C@@H](CCCNC(=N)N)C(=O)N[C@@H](CCCNC(=N)N)C(=O)N[C@@H](CO)C(N)=O [Peptide 3, C14-RRS-NH2] (Myristoyl-Arg-Arg-Ser-NH2) | 0.22 | 0.45 | 1.78 | 0.03 | 0.03 | 0.22 | 0.89
3 | CCCCCCCCCCCCCCCCCC(=O)N[C@@H](CO)C(=O)N[C@@H](CCCNC(=N)N)C(=O)N[C@@H](CCCNC(=N)N)C(N)=O [Peptide 7, C18-SRR-NH2] (Stearoyl-Ser-Arg-Arg-NH2) | 0.26 | 2.07 | 1.04 | 0.52 | 0.52 | 0.13 | 0.52
4 | CCCCCCCCCCCCCCCCCC(=O)N[C@@H](CCCNC(=N)N)C(=O)N[C@@H](CCCNC(=N)N)C(=O)N[C@@H](CO[C@@H]1O[C@H](CO)[C@@H](O)[C@H](O)[C@H]1NC(C)=O)C(N)=O [Peptide 18, C18-RRS(GlcNAc)-NH2] (Stearoyl-Arg-Arg-Ser(βGlcNAc)-NH2) | 0.43 | 3.46 | 1.73 | 0.43 | 0.43 | 0.43 | 0.87
5 | CCCCCCCCCCCCCCCC(=O)N[C@@H](CCCNC(=N)N)C(=O)N[C@@H](CO)C(=O)N[C@@H](CCCNC(=N)N)C(N)=O [Peptide 5, C16-RSR-NH2] (Palmitoyl-Arg-Ser-Arg-NH2) | 0.18 | 0.72 | 0.72 | 0.18 | 0.09 | 0.09 | 0.72
6 | CCCCCCCCCCCCCCCCCC(=O)N[C@@H](CCCNC(=N)N)C(=O)N[C@@H](CCCNC(=N)N)C(=O)N[C@@H](CO)C(N)=O [Peptide 9, C18-RRS-NH2] (Stearoyl-Arg-Arg-Ser-NH2) | 0.33 | 2.67 | 1.34 | 0.33 | 0.67 | 0.17 | 1.34
7 | CCCCCCCCCCCCCCCCCC(=O)N[C@@H](CO[C@@H]1O[C@H](CO)[C@@H](O)[C@H](O)[C@H]1NC(C)=O)C(=O)N[C@@H](CCCNC(=N)N)C(=O)N[C@@H](CCCNC(=N)N)C(N)=O [Peptide 16, C18-S(GlcNAc)RR-NH2] (Stearoyl-Ser(βGlcNAc)-Arg-Arg-NH2) | 0.63 | 2.53 | 0.63 | 0.32 | 0.16 | 0.32 | 0.63
8 | CCCCCCCCCCCCCC(=O)N[C@@H](CCCNC(=N)N)C(=O)N[C@@H](CCCNC(=N)N)C(=O)N[C@@H](CO[C@@H]1O[C@H](CO)[C@@H](O)[C@H](O)[C@H]1NC(C)=O)C(N)=O [Peptide 12, C14-RRS(GlcNAc)-NH2] (Myristoyl-Arg-Arg-Ser(βGlcNAc)-NH2) | 0.32 | 0.16 | 1.28 |  |  | 0.08 | 0.64

Where a SMILES comes first, the peptide text is derived from it. The star is where a group is joined. βGlcNAc = CC(=O)N[C@@H]1[C@@H](O)[C@H](O)[C@@H](CO)O[C@H]1*; Stearoyl = CCCCCCCCCCCCCCCCCC(=O)*; Palmitoyl = CCCCCCCCCCCCCCCC(=O)*; Myristoyl = CCCCCCCCCCCCCC(=O)*
